Assay results published in the supplement of paper PMC12067093, “Discovery and optimisation of a covalent ligand for TRIM25 and its application to targeted protein ubiquitination” (Chemical Science, 2025).
This is one part of the list.

By UniProt entry, the sequences of proteins in these tests, tags left out. Where a name states a change or a piece, a line headed by the entry shows the natural chain unless it says otherwise.
UniProt Q92879: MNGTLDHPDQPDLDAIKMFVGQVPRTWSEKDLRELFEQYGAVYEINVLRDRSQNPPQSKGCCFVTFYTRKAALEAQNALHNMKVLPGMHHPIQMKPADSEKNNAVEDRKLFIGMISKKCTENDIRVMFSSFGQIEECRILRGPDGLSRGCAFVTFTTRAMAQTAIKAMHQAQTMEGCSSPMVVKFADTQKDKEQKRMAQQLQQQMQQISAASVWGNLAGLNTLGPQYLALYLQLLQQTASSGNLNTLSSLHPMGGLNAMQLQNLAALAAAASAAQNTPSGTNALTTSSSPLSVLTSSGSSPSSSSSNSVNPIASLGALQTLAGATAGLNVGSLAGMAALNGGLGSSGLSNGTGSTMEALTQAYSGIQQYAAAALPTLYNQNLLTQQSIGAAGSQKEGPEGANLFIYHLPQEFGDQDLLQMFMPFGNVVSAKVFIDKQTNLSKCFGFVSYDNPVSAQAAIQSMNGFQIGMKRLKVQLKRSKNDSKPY
UniProt Q9NXV6: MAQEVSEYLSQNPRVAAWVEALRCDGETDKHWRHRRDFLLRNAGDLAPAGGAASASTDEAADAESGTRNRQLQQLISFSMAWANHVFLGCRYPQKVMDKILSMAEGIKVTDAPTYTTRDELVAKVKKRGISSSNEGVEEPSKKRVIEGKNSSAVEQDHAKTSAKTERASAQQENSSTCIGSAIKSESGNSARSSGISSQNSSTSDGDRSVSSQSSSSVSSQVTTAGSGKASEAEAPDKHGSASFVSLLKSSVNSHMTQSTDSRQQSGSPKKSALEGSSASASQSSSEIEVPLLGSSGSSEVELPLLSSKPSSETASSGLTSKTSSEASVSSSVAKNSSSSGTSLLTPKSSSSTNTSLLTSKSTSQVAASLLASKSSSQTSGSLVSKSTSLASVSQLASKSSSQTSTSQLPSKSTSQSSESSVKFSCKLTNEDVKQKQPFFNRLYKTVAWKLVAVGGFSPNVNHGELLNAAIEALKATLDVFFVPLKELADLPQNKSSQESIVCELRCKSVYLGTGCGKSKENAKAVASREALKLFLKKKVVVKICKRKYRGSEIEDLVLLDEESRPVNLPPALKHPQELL
UniProt Q9BYV8: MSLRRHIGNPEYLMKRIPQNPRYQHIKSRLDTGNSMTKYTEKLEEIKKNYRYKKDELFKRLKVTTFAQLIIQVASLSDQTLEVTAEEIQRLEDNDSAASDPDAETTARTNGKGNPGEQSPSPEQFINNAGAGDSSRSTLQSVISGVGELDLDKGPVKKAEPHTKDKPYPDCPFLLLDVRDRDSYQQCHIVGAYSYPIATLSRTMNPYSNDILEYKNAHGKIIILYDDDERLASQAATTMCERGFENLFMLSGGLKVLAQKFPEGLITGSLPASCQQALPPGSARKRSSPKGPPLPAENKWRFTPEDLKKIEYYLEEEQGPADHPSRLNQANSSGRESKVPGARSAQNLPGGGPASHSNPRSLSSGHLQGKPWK
UniProt P32970: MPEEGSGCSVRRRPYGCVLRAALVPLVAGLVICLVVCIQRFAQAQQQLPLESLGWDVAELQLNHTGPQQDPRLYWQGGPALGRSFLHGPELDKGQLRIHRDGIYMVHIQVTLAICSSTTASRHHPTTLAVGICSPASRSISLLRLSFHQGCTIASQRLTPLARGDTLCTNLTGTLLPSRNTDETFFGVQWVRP
UniProt P50990: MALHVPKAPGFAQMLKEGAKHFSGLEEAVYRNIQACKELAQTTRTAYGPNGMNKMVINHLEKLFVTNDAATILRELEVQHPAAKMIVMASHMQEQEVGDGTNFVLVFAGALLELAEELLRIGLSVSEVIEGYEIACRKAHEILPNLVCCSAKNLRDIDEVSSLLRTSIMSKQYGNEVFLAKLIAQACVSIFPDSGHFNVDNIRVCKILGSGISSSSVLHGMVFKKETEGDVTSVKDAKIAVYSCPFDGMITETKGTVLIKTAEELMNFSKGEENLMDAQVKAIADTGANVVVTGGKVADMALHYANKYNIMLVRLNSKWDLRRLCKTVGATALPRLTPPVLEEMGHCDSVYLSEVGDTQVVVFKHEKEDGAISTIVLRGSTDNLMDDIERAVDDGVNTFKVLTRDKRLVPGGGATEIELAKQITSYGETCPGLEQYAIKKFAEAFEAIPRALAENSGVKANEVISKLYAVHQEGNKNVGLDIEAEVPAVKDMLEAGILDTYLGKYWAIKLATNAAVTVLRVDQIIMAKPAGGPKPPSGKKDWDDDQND
UniProt Q5SW79: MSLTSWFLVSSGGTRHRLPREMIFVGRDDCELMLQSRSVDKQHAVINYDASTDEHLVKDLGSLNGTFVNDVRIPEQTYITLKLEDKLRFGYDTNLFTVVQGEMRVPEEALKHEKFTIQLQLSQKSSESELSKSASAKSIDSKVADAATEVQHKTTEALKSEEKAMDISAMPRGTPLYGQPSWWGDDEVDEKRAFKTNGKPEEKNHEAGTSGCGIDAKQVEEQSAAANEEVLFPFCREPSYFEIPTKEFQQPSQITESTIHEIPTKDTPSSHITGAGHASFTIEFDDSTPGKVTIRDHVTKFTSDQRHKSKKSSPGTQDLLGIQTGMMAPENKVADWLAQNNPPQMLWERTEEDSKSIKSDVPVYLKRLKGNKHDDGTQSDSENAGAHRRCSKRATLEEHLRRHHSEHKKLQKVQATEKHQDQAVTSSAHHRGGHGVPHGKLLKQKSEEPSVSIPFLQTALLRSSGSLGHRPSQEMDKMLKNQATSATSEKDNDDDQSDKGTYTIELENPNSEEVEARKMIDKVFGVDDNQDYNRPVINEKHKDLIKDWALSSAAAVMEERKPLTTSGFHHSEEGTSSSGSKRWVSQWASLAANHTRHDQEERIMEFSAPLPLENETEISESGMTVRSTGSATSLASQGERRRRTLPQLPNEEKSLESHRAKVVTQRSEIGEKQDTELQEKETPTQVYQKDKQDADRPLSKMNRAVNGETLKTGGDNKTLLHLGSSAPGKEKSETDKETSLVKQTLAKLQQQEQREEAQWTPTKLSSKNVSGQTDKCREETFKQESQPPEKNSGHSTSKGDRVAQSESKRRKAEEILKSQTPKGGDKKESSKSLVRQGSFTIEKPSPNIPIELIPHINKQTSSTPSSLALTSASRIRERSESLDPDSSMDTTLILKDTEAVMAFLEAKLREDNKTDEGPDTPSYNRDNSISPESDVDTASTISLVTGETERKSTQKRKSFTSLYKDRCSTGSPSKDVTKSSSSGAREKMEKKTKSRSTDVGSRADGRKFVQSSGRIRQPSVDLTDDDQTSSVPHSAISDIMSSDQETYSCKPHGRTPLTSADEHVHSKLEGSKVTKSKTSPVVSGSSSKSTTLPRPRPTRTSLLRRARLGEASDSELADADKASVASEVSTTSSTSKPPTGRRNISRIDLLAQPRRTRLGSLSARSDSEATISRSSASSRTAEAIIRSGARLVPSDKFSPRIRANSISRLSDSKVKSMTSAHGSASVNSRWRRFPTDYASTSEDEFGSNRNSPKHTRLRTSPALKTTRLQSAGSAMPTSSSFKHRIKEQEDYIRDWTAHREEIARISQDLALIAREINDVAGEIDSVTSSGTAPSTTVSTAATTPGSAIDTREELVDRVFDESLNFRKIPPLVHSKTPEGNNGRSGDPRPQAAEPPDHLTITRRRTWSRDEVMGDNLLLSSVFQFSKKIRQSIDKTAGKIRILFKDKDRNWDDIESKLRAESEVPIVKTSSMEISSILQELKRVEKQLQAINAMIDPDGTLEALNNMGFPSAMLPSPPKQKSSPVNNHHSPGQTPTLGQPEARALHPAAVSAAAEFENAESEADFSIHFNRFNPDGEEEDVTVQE

Compound: CC1Cc2ccccc2N1C(=O)C1CCCN(C1)C(=O)CCl (mixture of isomers) [TRIM25 ligand 11 (diastereomer mixture)]
Assay: probe-labelled cysteine peptide fold change vs DMSO (competition) (log2 fold change); higher = less target engagement (more negative = stronger competition)
Conditions: THP-1, incubation time: 4 h
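Also: competitive chemoproteomic profiling in live THP-1 cells with an iodoacetamide desthiobiotin (IA-DTB) probe, comparing probe-labelled peptide intensities in compound-treated cells against DMSO-treated controls.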

CELF1_Q92879_119_KCTENDIR (UniProt Q92879)
probe-labelled cysteine peptide fold change (10 µM): -0.0544 | probe-labelled cysteine peptide fold change (50 µM): 0.0502

CDKN2AIP_Q9NXV6_24_CDGETDK (UniProt Q9NXV6)
probe-labelled cysteine peptide fold change (10 µM): 0.0102 | probe-labelled cysteine peptide fold change (50 µM): -0.0653

CEP41_Q9BYV8_171_DKPYPDCPFLLLDVR (UniProt Q9BYV8)
probe-labelled cysteine peptide fold change (10 µM): 0.0823 | probe-labelled cysteine peptide fold change (50 µM): 0.155

CD70_P32970_17_RRPYGCVLR (UniProt P32970)
probe-labelled cysteine peptide fold change (10 µM): -0.0812 | probe-labelled cysteine peptide fold change (50 µM): 0.0199

CCT8_P50990_187_LIAQACVSIFPDSGHFNVDNIR (UniProt P50990)
probe-labelled cysteine peptide fold change (10 µM): -0.0566 | probe-labelled cysteine peptide fold change (50 µM): -0.0321

CCT8_P50990_136_IGLSVSEVIEGYEIACRK (UniProt P50990)
probe-labelled cysteine peptide fold change (10 µM): 0.129 | probe-labelled cysteine peptide fold change (50 µM): 0.122

CCT5_P48643_429+440_VVYGGGAAEISCALAVSQEADKCPTLEQYAMR (UniProt P48643)
probe-labelled cysteine peptide fold change (10 µM): -0.229 | probe-labelled cysteine peptide fold change (50 µM): -0.334

CEP170_Q5SW79_235_QVEEQSAAANEEVLFPFCR (UniProt Q5SW79)
probe-labelled cysteine peptide fold change (10 µM): 0.0682 | probe-labelled cysteine peptide fold change (50 µM): 0.0541
